# Results reported in paper PMC5387032 (Photosynthesis Research, 2017).
# Sequences of proteins named here, by UniProt entry; tags and fusion partners are left off.
# UniProt P22358: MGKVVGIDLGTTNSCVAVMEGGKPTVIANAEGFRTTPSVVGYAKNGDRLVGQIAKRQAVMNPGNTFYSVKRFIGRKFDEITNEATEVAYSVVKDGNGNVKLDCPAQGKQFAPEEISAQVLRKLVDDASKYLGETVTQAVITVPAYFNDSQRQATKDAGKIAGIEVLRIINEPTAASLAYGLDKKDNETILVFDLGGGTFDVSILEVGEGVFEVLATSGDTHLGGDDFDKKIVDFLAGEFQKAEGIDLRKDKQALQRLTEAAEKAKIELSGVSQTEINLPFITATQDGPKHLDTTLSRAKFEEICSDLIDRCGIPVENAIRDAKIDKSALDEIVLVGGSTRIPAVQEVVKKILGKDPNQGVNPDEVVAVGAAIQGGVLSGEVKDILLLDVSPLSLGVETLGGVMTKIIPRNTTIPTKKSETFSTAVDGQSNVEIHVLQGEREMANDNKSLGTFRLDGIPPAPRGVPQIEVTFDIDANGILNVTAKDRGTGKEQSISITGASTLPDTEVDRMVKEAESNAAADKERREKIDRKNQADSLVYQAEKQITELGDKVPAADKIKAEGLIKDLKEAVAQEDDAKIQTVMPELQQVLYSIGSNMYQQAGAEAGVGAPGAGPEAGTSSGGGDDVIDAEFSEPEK
# No constants are given. Whether binding was seen depends on the method and setting. In cells and extracts the contact can be indirect. These calls come from enrichment with a bait or labelling near it, and not all partners need be listed. Sequences can lack the tags named with a protein.
# Biological target: T1, N-terminally Strep-tagged RAF1 from Synechocystis sp. PCC 6803 (Synechocystis sp. PCC 6803) (UniProt Q55875)
# T1 sequence: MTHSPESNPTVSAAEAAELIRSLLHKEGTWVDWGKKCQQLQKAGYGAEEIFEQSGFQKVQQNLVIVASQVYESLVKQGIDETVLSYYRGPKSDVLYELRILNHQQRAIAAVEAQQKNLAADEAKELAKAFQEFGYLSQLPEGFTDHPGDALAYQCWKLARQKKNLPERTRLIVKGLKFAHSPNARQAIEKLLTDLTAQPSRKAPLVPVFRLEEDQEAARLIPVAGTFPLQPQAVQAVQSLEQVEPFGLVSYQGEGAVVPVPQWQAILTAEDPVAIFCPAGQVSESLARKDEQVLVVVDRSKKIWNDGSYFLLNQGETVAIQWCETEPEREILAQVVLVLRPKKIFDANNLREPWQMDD
# Test: affinity purification with mass spectrometry; 20 µg of N- or C-terminally Strep-tagged RAF1 added to wild-type Synechocystis crude extract (1 mg protein), 5 min RT, then Strep-Tactin Superflow Plus resin 15 min RT; washed with 20 mM Tris pH 8.0, 150 mM NaCl; eluted with 2.5 mM d-desthiobiotin; silver-stained SDS-PAGE bands identified by mass spectrometry; only the target purified
row,binding,Substance
1,binds,"DnaK2, endogenous in Synechocystis sp. PCC 6803 (from UniProt P22358 1-636)"
2,binds,"Cpn60, endogenous in Synechocystis sp. PCC 6803"
